In PubChem BioAssay AID1259415 (National Center for Advancing Translational Sciences (NCATS), 2018):
Where “and” joins values, the source holds several entries; their conditions need not be identical. Equal values may be shown once. Out of some 410,000 compounds screened, about 18,000 (4.4%) were called active. The shares of active, inactive and inconclusive entries below differ from those in the screen. Rule as the data show it: active = activity change below about -60%; inconclusive = no clear call, values can overlap the other calls; inactive = above about -39%.

Assay: qHTS Assay for inhibitors of the human cytomegalovirus (HCMV)
Conditions: HFF cells, HCMV-luciferase reporter, 72 h; at 57.5 µM; active compounds read low
Outline: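 Two compound doses tested in HFFs infected with HCMV-luciferase, MOI 1 PFU/cell, 72 h at 37C. Lysate luminescence read with OneGlo; data normalized against buffer-only and 10uM Salinomycin inhibitor controls.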
% is scaled to controls: 0 for no effect and ±100 for the full control effect.

| SMILES | activity change, negative = inhibition |
| --- | --- |
| COc1cccc(CNCCO)c1OCc1ccccc1 | inconclusive: -53.1% |
| COCCn1c(SCc2csc(-c3ccccc3)n2)nc2ccccc21 | inconclusive: -46.1% |
| Cc1cc(C)n(-c2cc(N3CCN(S(=O)(=O)c4ccc(Cl)cc4)CC3)ccc2[N+](=O)[O-])n1 | inconclusive: -48.7% |
| CC(C)C(=O)N=c1sc2cccc(F)c2n1C | inactive: -23.5% |
| COc1ccc(/C=C/c2c(-c3ccc(OC)cc3)oc3ccc(-c4ccc(OC)cc4)cc23)cc1 | inconclusive: -44.5% |
| COc1ccc(C(c2nnnn2C2CCCC2)N2CCc3ccccc3C2)cc1OC (stereo unspecified) | inconclusive: -58.4% |
| COc1ccc(-n2c(CC3C(=O)N(C)c4ccc(C)cc43)nc3ccccc3c2=O)cc1 (stereo unspecified) | inactive: 14.9% |
| CCS(=O)(=O)N1CCN(CC(=O)NC2CCCCC2)CC1 | inactive: -18.6% |
| C=CCOC(=O)/C(=C\c1ccccc1)NC(=O)c1ccc(C)cc1 | active: -67.1% |
| COc1cc(CNn2c(C)n[nH]c2=S)cc(Br)c1OCc1ccc(F)cc1 | inconclusive: -51.7% |
| O=C(CSc1nnnn1C1CCCCC1)N1c2ccccc2Sc2ccccc21 | inconclusive: -47.5% |
| CC(C)NC(=O)c1csc(N2CCN(CCc3ccccc3)C2=O)n1 | inactive: 11.2% |
| Clc1ccc(CNC23CN4CN(CN(C4)C2)C3)c(Cl)c1 | inactive: -28.6% |
| CCOC(=O)c1ccc(NC(=O)N2CCN(C(=O)c3ccco3)CC2)cc1 | inconclusive: -49.1% |
| S=c1[nH]nc(-c2cccc(Cl)c2)n1/N=C/c1ccc(-c2ccccc2Br)o1 | inconclusive: -46.5% |
| O=C(Nc1ccc(F)cc1)Nc1ccc(N2CCCC2)c(S(=O)(=O)Nc2ccccc2Cl)c1 | active: -99.6% |
| Cc1ccc(S(=O)(=O)c2cnc(-c3ccccc3)nc2N2CCCCC2)cc1 | inconclusive: -43.6% |
| Cn1c(=O)c2c(nc(NCCO)n2CCc2ccccc2)n(C)c1=O | inconclusive: -48% |
| Cc1cccc(N(CC(=O)NC2CCCCC2)C(=O)CCCC(=O)Nc2ccccn2)c1 | inactive: 13.8% |
| CCn1c(C(=O)NCCc2ccc(OC)c(OC)c2)cc2sc(Cl)cc21 | inconclusive: -43.7% |
| Cc1cccc(NC(=S)NCc2ccccn2)c1 | inactive: 115% |
| COc1cc([N+](=O)[O-])cc(/C=N/NC(=O)c2cccnc2)c1O | active: -88.1% |

| SMILES | activity change, negative = inhibition |
| --- | --- |
| c1ccc2oc(SCc3nc4ccccc4s3)nc2c1 | inactive: 84.6% |
| CC1CCN(S(=O)(=O)c2cn(CC(=O)Nc3cccc(C(F)(F)F)c3)c(=O)c3ccccc23)CC1 | inconclusive: -46.2% |
| O=C(Nc1ccccc1C(=O)NC(Cc1ccc(O)cc1)C(=O)O)c1ccccc1 (stereo unspecified) | inactive: -0.824% |
| COc1cc(C2c3cc4c(cc3CC3COC(=O)C32)OCO4)cc(OC)c1O (stereo unspecified) | active: -90.2% |
| COc1ccc(CCNS(=O)(=O)c2ccc3c(c2)NC(=O)C(C)S3)cc1OC (stereo unspecified) | inactive: -20.5% |
| O=C(NC1CCCCC1)c1ccc(Cn2c(SCc3ccccc3F)nc3cccnc32)cc1 | inconclusive: -52.8% |
| CCc1n[nH]c(=S)n1/N=C/c1ccc(N(CC)CC)cc1 | inconclusive: -56.6% |
| CCOc1ccc(C2C(C(=O)O)CCC(=O)N2C2CCCCC2)cc1 (stereo unspecified) | inactive: -0.881% |
| CCC(=O)N1CCc2cc(Br)cc(S(=O)(=O)N3CCC(C(=O)NCCCOC(C)C)CC3)c21 | inactive: 12.3% and inactive: 10.1% |
| Cc1ccccc1NC(=O)C(C)OC(=O)C1CC(=O)N(Cc2ccco2)C1 (stereo unspecified) | active: -102% |
| O=C(c1ccc2ncsc2c1)N1CCN(c2ccccc2Cl)CC1 | inconclusive: -41.5% |
| Cc1cccc(NC(=S)N(CCCN(C)C)Cc2cc3cc4c(cc3[nH]c2=O)OCO4)c1 | inactive: -20.1% |
| CCOc1ccc(NC(=O)c2ccc(NC(=O)N3CCSc4ncccc43)cc2)cc1 | inconclusive: 0% |
| Cc1ccccc1NC(=O)c1cccc(C(=O)Nc2ccccc2C)n1 | inconclusive: -53.5% |
| CC(=O)c1ccc(N2CCN(c3ncnc4c3c(-c3ccccc3)cn4-c3cccc(C)c3)CC2)cc1 | inconclusive: -45.3% |
| CC1CCCN(C(=O)CSc2nnc(-c3c[nH]c4ccccc34)o2)C1 (stereo unspecified) | inactive: 39.4% |
| CC1CCN(S(=O)(=O)c2cn(CC(=O)N3CC(C)CC(C)C3)c(=O)c3ccccc23)CC1 (stereo unspecified) | inconclusive: -43.4% |
| O=C(CCCn1c(SCc2ccccc2F)nc2ccccc2c1=O)NCC1CCCO1 (stereo unspecified) | inconclusive: -56.8% |
| CC1(C(=O)Nc2ccc3[nH]ncc3c2)CCN1C(=O)C1(c2ccccc2)CC1 (stereo unspecified) | active: -98% |
| O=C1C=CC(=O)C2C1C1(Cl)C(Cl)=C(Cl)C2(Cl)C1(Cl)Cl (stereo unspecified) | inconclusive: -58.3% |
| O=C(C1CC1)N1CCc2cc(Br)cc(S(=O)(=O)N3CCN(c4cccc(C(F)(F)F)c4)CC3)c21 | inactive: 14.5% |
| CC(=O)c1ccc(NC(=O)CSc2nnc3ccc(-c4ccc(Cl)cc4)nn23)cc1 | inactive: 40.2% |

2 consecutive records out of the list so far, for reference:

| SMILES | activity change, negative = inhibition |
| --- | --- |
| Cc1ccccc1NC(=O)C(C)OC(=O)C1CC(=O)N(Cc2ccco2)C1 (stereo unspecified) | active: -102% |
| O=C(c1ccc2ncsc2c1)N1CCN(c2ccccc2Cl)CC1 | inconclusive: -41.5% |

(continued)

| SMILES | activity change, negative = inhibition |
| --- | --- |
| CC1(C(=O)N/N=C/c2ccc([N+](=O)[O-])o2)CC1(Br)Br (stereo unspecified) | active: -60.3% |
| O=S(=O)(c1ccc(NC(=S)N2CCOCC2)cc1)N1CCCCC1 | inactive: 21.3% |
| Cc1cccc(Nc2nc3ccccc3n3nnnc23)c1 | inactive: -19.6% |
| CCOc1ccc(S(=O)(=O)NCCc2sc3nc(-c4ccc(F)cc4)nn3c2C)cc1 | inconclusive: -52.7% |
| Cc1nnc(SCc2ccc([N+](=O)[O-])cc2)[nH]c1=O | inconclusive: -53.4% |
| COc1ccccc1Cc1nc(-c2ccncc2)no1 | inconclusive: -46% |
| Cn1ncc(N=Cc2ccc([N+](=O)[O-])cc2)c1C(=O)N1CCOCC1 | inactive: -7.39% |
| NC(N)=NC(N)=NCCc1ccccc1 | active: -81.9% |
| Cc1ccc(S(=O)(=O)N2CCN(C(=O)CSc3ccc(F)cc3)CC2)cc1 | inconclusive: -45.8% |
| CC1=CC(C)(C)NC(=S)N1c1ccc(C)c(C)c1 | inconclusive: -59.6% |
| COc1ccc(SCc2cc(=O)c3cc(Cl)ccc3[nH]2)cc1 | inconclusive: -43.9% |
| O=C(CN1CCOCC1)Nc1ccc2c(c1)OCCO2 | inactive: -25.2% |
| O=C(CSc1nnc(COc2ccccc2Cl)o1)NC(=O)NC1CCCC1 | inactive: 16.1% |
| CC(=O)Nc1ccc(S(=O)(=O)Oc2ccccc2N2C(=O)C3C4CCC(C4)C3C2=O)cc1 (stereo unspecified) | inactive: -34.2% |
| CCCCS(=O)(=O)c1sc2nc3c(cc2c1N)CCCC3 | inconclusive: -53.4% |
| COCCCC1CCN(C(=O)c2cc(COc3ccc(C)nc3)on2)CC1 | inconclusive: -48.5% |
| Cc1ccc(-n2ncc(C(=O)NCc3ccccc3C)c2-n2cccc2)cc1 | inconclusive: -56.8% |
| C=CCn1c(C)cc(C(=O)Cn2c(C(C)O)nc3ccccc32)c1C (stereo unspecified) | active: -65.8% |
| Cc1ccc(N2CC3=C(C2=O)C(c2ccccc2)NC(=O)N3C)cc1 (stereo unspecified) | inconclusive: -42.1% |
| CCOc1ccc(NC(=O)N2CCN(c3nc4ccccc4s3)CC2)cc1 | inconclusive: -40.2% |
| CC(C)C[C@H]1COc2cccc(N3CCC[C@H]3CO)c2S(=O)(=O)N1 | inactive: -25% |
| Nc1ccc(C(=O)N2CCN(S(=O)(=O)c3ccc4c(c3)OCCCO4)CC2)cc1[N+](=O)[O-] | inconclusive: -50.2% |

Random excerpt: five compounds from above.

| SMILES | activity change, negative = inhibition |
| --- | --- |
| CCOC(=O)c1ccc(NC(=O)N2CCN(C(=O)c3ccco3)CC2)cc1 | inconclusive: -49.1% |
| Cc1ccc(-n2ncc(C(=O)NCc3ccccc3C)c2-n2cccc2)cc1 | inconclusive: -56.8% |
| CC1(C(=O)Nc2ccc3[nH]ncc3c2)CCN1C(=O)C1(c2ccccc2)CC1 (stereo unspecified) | active: -98% |
| Cc1cccc(NC(=S)NCc2ccccn2)c1 | inactive: 115% |
| CCCCS(=O)(=O)c1sc2nc3c(cc2c1N)CCCC3 | inconclusive: -53.4% |

More results.

| SMILES | activity change, negative = inhibition |
| --- | --- |
| Cc1cc2cc(CN(Cc3nnnn3C3CCCCC3)CC3CCCO3)c(=O)[nH]c2cc1C (stereo unspecified) | inconclusive: -53.1% |
| CCN(CC)C(=O)CSc1nnc(-c2ccco2)o1 | inactive: 49.2% |
| Cn1nnnc1Sc1ncnc2scc(-c3ccc(F)cc3)c12 | active: -76.4% |
| CNc1ccc2ncc(-c3cccc(C(=O)N(C)C)c3)n2n1 | active: -75.2% |
| Cc1ccc(S(=O)(=O)CCNC(=O)Cc2ccc(Cl)cc2)cc1 | inactive: -18.2% |
| O=C(CSc1ncnc2c1nnn2Cc1ccccc1F)NCC1CCCO1 (stereo unspecified) | inconclusive: -45.3% |
| Cc1ccc(Cc2nc3ccccc3nc2SCC(=O)Nc2ccc3c(c2)OCO3)cc1 | active: -66.1% |
| COC(=O)C1=C(c2cc3ccccc3o2)C[C@@H]2CC[C@H]1N2C(=O)N1CCCC1 | active: -60.2% |
| CCOC(=O)[C@]12CCCC=C1N(Cc1ccccc1)C(=O)[C@H](CC(=O)N1CCCCCC1)C2 | inactive: -16.5% |
| CCc1ccc(O)c(CNCCNCc2cc(CC)ccc2O)c1 | inconclusive: -57.5% |
| O=C(O)c1cc(-n2c(/C=C\c3ccc(F)cc3)nc3ccccc3c2=O)ccc1Cl | inconclusive: -53.1% |
| O=C1c2ccccc2C2(c3ccccc3)N1CCN2C(=O)C(Cl)(Cl)Cl (stereo unspecified) | inconclusive: -53% |
| S=C(NCCc1ccccc1)Nc1cnc2ccccc2c1 | active: -63.2% |
| Cc1ccc(Cl)cc1-n1ncc2c(NC3CCCCCC3)ncnc21 | inconclusive: -47% |
| CC1=NOC(=O)/C1=C/c1ccc(O)c(Cl)c1 | inconclusive: -40.8% |
| COc1cc(C2c3c([nH]c(=O)[nH]c3=O)Nc3ccc4ccccc4c32)ccc1O (stereo unspecified) | inactive: 57.4% |
| CCN(CC)c1ccc(/C=C(\C#N)C(=O)NCc2ccco2)cc1 | inconclusive: -57.8% |
| CCOC(=O)c1c(NC(=O)COc2ccccc2C#N)sc2c1CC(C)(C)NC2(C)C | inconclusive: -58.5% |
| O=[N+]([O-])c1ccc(CN2CCN(c3nc4ccccc4s3)CC2)cc1 | inconclusive: -50.5% |
| C[C@@H]1CN([C@@H](C)CO)C(=O)c2cc(NC(=O)c3ccccc3)ccc2O[C@@H](C)CCCCO[C@@H]1CN(C)Cc1ccc(C(F)(F)F)cc1 | inactive: 1.59% |
